Some of the results follow.
Experiments:
Experiment in all cases: glycan array binding signal (z-score within array); higher = stronger binding
Settings in all cases: glycan notation: IUPAC condensed, linker removed; mutation: R201A
[1] = molecular target: Fuc(a1-2)Gal
Method in brief: (§1)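 Glycan array data came from 3228 arrays in the Consortium for Functional Glycomics database, and only arrays with an available protein sequence were kept. Glycan names were put into IUPAC-condensed notation, and columns mapping to the same glycan were averaged. The binding signal is a within-array Z-score, averaged across arrays of one protein sequence run at different concentrations or buffers and across linkers. A negative Z-score can be read as non-binding.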

[2] = molecular target: Fuc(a1-2)Gal(b1-3)GalNAc
Method in brief: as §1

[3] = molecular target: Fuc(a1-2)Gal(b1-3)GalNAc(a1-3)[Fuc(a1-2)]Gal(b1-4)Glc
Method in brief: as §1

[4] = molecular target: Fuc(a1-2)Gal(b1-3)GalNAc(a1-3)[Fuc(a1-2)]Gal(b1-4)GlcNAc
Method in brief: as §1

[5] = molecular target: Fuc(a1-2)Gal(b1-3)GalNAc(b1-3)Gal
Method in brief: as §1

[6] = molecular target: Fuc(a1-2)Gal(b1-3)GalNAc(b1-3)Gal(a1-4)Gal(b1-4)Glc
Method in brief: as §1

[7] = molecular target: Fuc(a1-2)Gal(b1-3)GalNAc(b1-4)[Neu5Ac(a2-3)]Gal(b1-4)Glc
Method in brief: as §1

[8] = molecular target: Fuc(a1-2)Gal(b1-3)GlcNAc
Method in brief: as §1

[9] = molecular target: Fuc(a1-2)Gal(b1-3)GlcNAc(b1-2)Man(a1-3)[Fuc(a1-2)Gal(b1-3)GlcNAc(b1-2)Man(a1-6)]Man(b1-4)GlcNAc(b1-4)GlcNAc
Method in brief: as §1

[10] = molecular target: Fuc(a1-2)Gal(b1-3)GlcNAc(b1-2)Man(a1-3)[Fuc(a1-2)Gal(b1-3)GlcNAc(b1-2)Man(a1-6)]Man(b1-4)GlcNAc(b1-4)[Fuc(a1-6)]GlcNAc
Method in brief: as §1

[11] = molecular target: Fuc(a1-2)Gal(b1-3)GlcNAc(b1-3)Gal(b1-4)Glc
Method in brief: as §1

[12] = molecular target: Fuc(a1-2)Gal(b1-3)GlcNAc(b1-3)GalNAc
Method in brief: as §1

[13] = molecular target: Fuc(a1-2)Gal(b1-3)GlcNAc(b1-3)[Fuc(a1-2)Gal(b1-3)GlcNAc(b1-6)]GalNAc
Method in brief: as §1

[14] = molecular target: Fuc(a1-2)Gal(b1-3)GlcNAc(b1-3)[Gal(b1-4)GlcNAc(b1-6)]Gal(b1-4)Glc
Method in brief: as §1

[15] = molecular target: Fuc(a1-2)Gal(b1-3)GlcNAc(b1-3)[Neu5Ac(a2-6)Gal(b1-4)GlcNAc(b1-6)]Gal(b1-4)Glc
Method in brief: as §1

[16] = molecular target: Fuc(a1-2)Gal(b1-3)GlcNAc6S
Method in brief: as §1

[17] = molecular target: Fuc(a1-2)Gal(b1-3)[Fuc(a1-4)]GlcNAc
Method in brief: as §1

[18] = molecular target: Fuc(a1-2)Gal(b1-3)[Fuc(a1-4)]GlcNAc(b1-2)Man(a1-3)[Fuc(a1-2)Gal(b1-3)[Fuc(a1-4)]GlcNAc(b1-2)Man(a1-3)]Man(b1-4)GlcNAc(b1-4)GlcNAc
Method in brief: as §1

[19] = molecular target: Fuc(a1-2)Gal(b1-3)[Fuc(a1-4)]GlcNAc(b1-2)Man(a1-3)[Fuc(a1-2)Gal(b1-3)[Fuc(a1-4)]GlcNAc(b1-2)Man(a1-6)]Man(b1-4)GlcNAc(b1-4)[Fuc(a1-6)]GlcNAc(b1-4)[Fuc(a1-6)]GlcNAc
Method in brief: as §1

[20] = molecular target: Fuc(a1-2)Gal(b1-3)[Fuc(a1-4)]GlcNAc(b1-3)[Fuc(a1-3)[Gal(b1-4)]GlcNAc(b1-6)]Gal(b1-4)Glc
Method in brief: as §1

[21] = molecular target: Fuc(a1-2)Gal(b1-3)[Fuc(a1-4)]GlcNAc(b1-3)[Gal(b1-4)GlcNAc(b1-6)]Gal(b1-4)Glc
Method in brief: as §1

[22] = molecular target: Fuc(a1-2)Gal(b1-4)Fuc(a1-3)]GlcNAc(b1-2)Man(a1-3)[Fuc(a1-2)Gal(b1-4)[Fuc(a1-3)]GlcNAc(b1-2)Man(a1-6)]Man(b1-4)GlcNAc(b1-4)GlcNAc
Method in brief: as §1

[23] = molecular target: Fuc(a1-2)Gal(b1-4)Glc
Method in brief: as §1

[24] = molecular target: Fuc(a1-2)Gal(b1-4)Glc6S
Method in brief: as §1

[25] = molecular target: Fuc(a1-2)Gal(b1-4)GlcNAc
Method in brief: as §1

[26] = molecular target: Fuc(a1-2)Gal(b1-4)GlcNAc(b1-2)Man
Method in brief: as §1

[27] = molecular target: Fuc(a1-2)Gal(b1-4)GlcNAc(b1-2)Man(a1-3)[Fuc(a1-2)Gal(b1-4)GlcNAc(b1-2)Man(a1-6)]Man(b1-4)GlcNAc(b1-4)GlcNAc
Method in brief: as §1

[28] = molecular target: Fuc(a1-2)Gal(b1-4)GlcNAc(b1-2)Man(a1-3)[Fuc(a1-2)Gal(b1-4)GlcNAc(b1-2)Man(a1-6)]Man(b1-4)GlcNAc(b1-4)[Fuc(a1-6)]GlcNAc
Method in brief: as §1

[29] = molecular target: Fuc(a1-2)Gal(b1-4)GlcNAc(b1-2)[Fuc(a1-2)Gal(b1-4)GlcNAc(b1-4)]Man(a1-3)[Fuc(a1-2)Gal(b1-4)GlcNAc(b1-2)Man(a1-6)]Man(b1-4)GlcNAc(b1-4)GlcNAc
Method in brief: as §1

[30] = molecular target: Fuc(a1-2)Gal(b1-4)GlcNAc(b1-3)Gal(b1-4)GlcNAc
Method in brief: as §1

B1: OS9 (Arabidopsis thaliana) (protein)
chain: MRGSHHHHHHGMASMTGGQQMGRDLYDDDDKSRLQIFPAHLVGTFSRNNREPKYKIEFLPEDSPFHPGDNLESMVMLDKHGNRFLCYLPKEEKATSGWTSSQQNISTVMMETQQLVKLKTPDELLQPLSEKCLFRQEGWWSYEFCHQKYVRQLHVEDENKIVQEFFLGTFDPEATAAFNQTVSDASTDASQRYHSHVYTNGTTCDLTGSPAEVEVRFVCAETRAMVTSITELSTCKYALTVQCPTLCKHPLFQLEKPVSHTIHCNAIPVEEDATRNKEEQAVDESPKMIADS
glycan array binding signal (z-score) [1]: 0.581
glycan array binding signal (z-score) [2]: -0.494
glycan array binding signal (z-score) [3]: 0.944
glycan array binding signal (z-score) [4]: 0.159
glycan array binding signal (z-score) [5]: -0.378
glycan array binding signal (z-score) [6]: -0.131
glycan array binding signal (z-score) [7]: -0.246
glycan array binding signal (z-score) [8]: 0.928
glycan array binding signal (z-score) [9]: 1.41
glycan array binding signal (z-score) [10]: 0.177
glycan array binding signal (z-score) [11]: -0.271
glycan array binding signal (z-score) [12]: -0.284
glycan array binding signal (z-score) [13]: 1.54
glycan array binding signal (z-score) [14]: 0.623
glycan array binding signal (z-score) [15]: 0.511
glycan array binding signal (z-score) [16]: -0.714
glycan array binding signal (z-score) [17]: 0.017
glycan array binding signal (z-score) [18]: -0.271
glycan array binding signal (z-score) [19]: -0.6
glycan array binding signal (z-score) [20]: 0.289
glycan array binding signal (z-score) [21]: -0.471
glycan array binding signal (z-score) [22]: 1.01
glycan array binding signal (z-score) [23]: -0.732
glycan array binding signal (z-score) [24]: 0.04
glycan array binding signal (z-score) [25]: -0.385
glycan array binding signal (z-score) [26]: -0.418
glycan array binding signal (z-score) [27]: -0.091
glycan array binding signal (z-score) [28]: 1.92
glycan array binding signal (z-score) [29]: -0.17
glycan array binding signal (z-score) [30]: -0.589
